Measured values taken from article PMC10558514.
These are yes or no findings as the source states them, for the method shown. Binding seen in cells or lysates may run through a third protein. Some binding calls cover weakened binding; strength is not graded here. Sequences can lack the tags named with a protein.

Experiments:
[1] = molecular target: T1, Myc-YTHDF2^R-Δ169-200 (human) (UniProt Q9Y5A9); experiment: co-IP; IP with α-Myc antibody from extracts of HEK293T cells transfected with Myc-YTHDF2 (WT or variant), western blot; DMSO or MG132 12 h (Fig. 3b), two days after transfection (Fig. 4a)
T1 sequence: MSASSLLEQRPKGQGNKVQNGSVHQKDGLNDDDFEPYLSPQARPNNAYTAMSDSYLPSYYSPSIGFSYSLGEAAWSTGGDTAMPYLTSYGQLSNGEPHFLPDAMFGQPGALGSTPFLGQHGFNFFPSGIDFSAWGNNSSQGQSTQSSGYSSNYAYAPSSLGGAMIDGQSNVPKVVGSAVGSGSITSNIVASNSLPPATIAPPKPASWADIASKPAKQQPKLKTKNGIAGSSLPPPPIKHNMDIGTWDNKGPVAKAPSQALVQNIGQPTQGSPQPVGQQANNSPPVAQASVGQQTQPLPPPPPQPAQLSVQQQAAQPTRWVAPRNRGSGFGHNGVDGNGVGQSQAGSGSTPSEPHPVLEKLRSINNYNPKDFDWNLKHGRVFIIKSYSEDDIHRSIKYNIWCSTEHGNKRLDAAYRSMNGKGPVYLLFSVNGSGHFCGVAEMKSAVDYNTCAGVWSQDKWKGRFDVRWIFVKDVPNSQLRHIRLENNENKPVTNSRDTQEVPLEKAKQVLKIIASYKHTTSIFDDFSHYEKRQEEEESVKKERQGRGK

[2] = molecular target: T2, Myc-YTHDF2^R-R527A (human) (UniProt Q9Y5A9); experiment: as above
T2 sequence: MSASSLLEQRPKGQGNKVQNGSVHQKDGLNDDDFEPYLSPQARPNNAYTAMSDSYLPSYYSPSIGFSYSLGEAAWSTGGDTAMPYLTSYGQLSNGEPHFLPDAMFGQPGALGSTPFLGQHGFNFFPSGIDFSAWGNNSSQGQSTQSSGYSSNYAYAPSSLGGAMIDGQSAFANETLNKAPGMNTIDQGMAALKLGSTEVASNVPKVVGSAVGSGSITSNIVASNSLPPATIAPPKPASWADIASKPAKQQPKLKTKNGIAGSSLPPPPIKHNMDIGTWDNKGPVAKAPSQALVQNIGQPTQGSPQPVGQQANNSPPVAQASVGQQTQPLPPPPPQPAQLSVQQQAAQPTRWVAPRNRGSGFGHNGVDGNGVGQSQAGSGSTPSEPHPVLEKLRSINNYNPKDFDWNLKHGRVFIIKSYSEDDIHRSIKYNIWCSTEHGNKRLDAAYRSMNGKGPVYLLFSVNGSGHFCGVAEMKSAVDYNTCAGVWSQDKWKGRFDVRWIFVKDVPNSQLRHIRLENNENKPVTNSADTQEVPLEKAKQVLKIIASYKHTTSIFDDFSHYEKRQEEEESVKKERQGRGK

- binding [1]: binds
- binding [2]: binds
B1: upstream frameshift 1 (UPF1), endogenous (protein, UniProt Q92900 1-1129)
chain: MSVEAYGPSSQTLTFLDTEEAELLGADTQGSEFEFTDFTLPSQTQTPPGGPGGPGGGGAGGPGGAGAGAAAGQLDAQVGPEGILQNGAVDDSVAKTSQLLAELNFEEDEEDTYYTKDLPIHACSYCGIHDPACVVYCNTSKKWFCNGRGNTSGSHIVNHLVRAKCKEVTLHKDGPLGETVLECYNCGCRNVFLLGFIPAKADSVVVLLCRQPCASQSSLKDINWDSSQWQPLIQDRCFLSWLVKIPSEQEQLRARQITAQQINKLEELWKENPSATLEDLEKPGVDEEPQHVLLRYEDAYQYQNIFGPLVKLEADYDKKLKESQTQDNITVRWDLGLNKKRIAYFTLPKTDSGNEDLVIIWLRDMRLMQGDEICLRYKGDLAPLWKGIGHVIKVPDNYGDEIAIELRSSVGAPVEVTHNFQVDFVWKSTSFDRMQSALKTFAVDETSVSGYIYHKLLGHEVEDVIIKCQLPKRFTAQGLPDLNHSQVYAVKTVLQRPLSLIQGPPGTGKTVTSATIVYHLARQGNGPVLVCAPSNIAVDQLTEKIHQTGLKVVRLCAKSREAIDSPVSFLALHNQIRNMDSMPELQKLQQLKDETGELSSADEKRYRALKRTAERELLMNADVICCTCVGAGDPRLAKMQFRSILIDESTQATEPECMVPVVLGAKQLILVGDHCQLGPVVMCKKAAKAGLSQSLFERLVVLGIRPIRLQVQYRMHPALSAFPSNIFYEGSLQNGVTAADRVKKGFDFQWPQPDKPMFFYVTQGQEEIASSGTSYLNRTEAANVEKITTKLLKAGAKPDQIGIITPYEGQRSYLVQYMQFSGSLHTKLYQEVEIASVDAFQGREKDFIILSCVRANEHQGIGFLNDPRRLNVALTRARYGVIIVGNPKALSKQPLWNHLLNYYKEQKVLVEGPLNNLRESLMQFSKPRKLVNTINPGARFMTTAMYDAREAIIPGSVYDRSSQGRPSSMYFQTHDQIGMISAGPSHVAAMNIPIPFNLVMPPMPPPGYFGQANGPAAGRGTPKGKTGRGGRQKNRFGLPGPSQTNLPNSQASQDVASQPFSQGALTQGYISMSQPSQMSQPGLSQPELSQDSYLGDEFKSQIDVALSQDSTYQGERAYQHGGVTGLSQY
